Reference: publication PMC12648486, “A LisH-domain protein interaction map reveals a Lis1-ARIH2-dynein regulatory axis” (iScience, 2025)
Results are given in words; binding and its absence hold for the method and conditions named. For some of these results: Binding seen in cells or lysates may run through a third protein. Some binding calls cover weakened binding; strength is not graded here. For some of these results: Where a sequence is shown, tags or fusion partners need not be part of it. Blank lines part the entries; values can stand above or below the molecule they belong to.

Amino acid sequences for entries named in this document (tags omitted). A change or cut given only in a name is not applied to a line headed by its entry.
UniProt Q13098: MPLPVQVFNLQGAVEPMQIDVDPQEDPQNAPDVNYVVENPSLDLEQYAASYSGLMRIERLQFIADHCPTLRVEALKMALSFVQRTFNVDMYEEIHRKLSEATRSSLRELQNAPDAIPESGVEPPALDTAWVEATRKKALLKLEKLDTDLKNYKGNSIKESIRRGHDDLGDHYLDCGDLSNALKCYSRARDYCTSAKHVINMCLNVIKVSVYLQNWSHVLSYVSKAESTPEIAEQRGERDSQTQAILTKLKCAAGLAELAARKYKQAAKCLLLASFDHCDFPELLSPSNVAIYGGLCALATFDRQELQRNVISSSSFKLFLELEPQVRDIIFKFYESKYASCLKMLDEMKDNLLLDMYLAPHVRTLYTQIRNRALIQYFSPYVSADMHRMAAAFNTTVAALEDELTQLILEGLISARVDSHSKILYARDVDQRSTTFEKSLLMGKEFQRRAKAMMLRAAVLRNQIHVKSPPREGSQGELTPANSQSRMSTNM
UniProt Q9Y4X5: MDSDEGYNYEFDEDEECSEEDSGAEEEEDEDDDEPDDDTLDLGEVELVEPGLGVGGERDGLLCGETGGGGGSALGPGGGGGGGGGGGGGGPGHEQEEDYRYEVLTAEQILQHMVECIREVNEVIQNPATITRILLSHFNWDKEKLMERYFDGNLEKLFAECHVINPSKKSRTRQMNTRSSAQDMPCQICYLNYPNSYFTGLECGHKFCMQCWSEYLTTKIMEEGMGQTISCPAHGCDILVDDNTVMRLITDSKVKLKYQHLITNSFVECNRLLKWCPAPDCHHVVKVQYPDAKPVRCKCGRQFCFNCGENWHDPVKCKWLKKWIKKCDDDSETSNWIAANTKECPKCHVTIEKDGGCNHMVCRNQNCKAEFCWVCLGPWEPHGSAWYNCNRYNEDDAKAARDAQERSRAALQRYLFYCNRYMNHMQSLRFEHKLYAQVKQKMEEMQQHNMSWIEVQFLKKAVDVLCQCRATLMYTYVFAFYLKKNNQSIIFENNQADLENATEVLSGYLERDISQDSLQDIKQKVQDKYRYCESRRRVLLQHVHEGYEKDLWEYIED
UniProt O95376: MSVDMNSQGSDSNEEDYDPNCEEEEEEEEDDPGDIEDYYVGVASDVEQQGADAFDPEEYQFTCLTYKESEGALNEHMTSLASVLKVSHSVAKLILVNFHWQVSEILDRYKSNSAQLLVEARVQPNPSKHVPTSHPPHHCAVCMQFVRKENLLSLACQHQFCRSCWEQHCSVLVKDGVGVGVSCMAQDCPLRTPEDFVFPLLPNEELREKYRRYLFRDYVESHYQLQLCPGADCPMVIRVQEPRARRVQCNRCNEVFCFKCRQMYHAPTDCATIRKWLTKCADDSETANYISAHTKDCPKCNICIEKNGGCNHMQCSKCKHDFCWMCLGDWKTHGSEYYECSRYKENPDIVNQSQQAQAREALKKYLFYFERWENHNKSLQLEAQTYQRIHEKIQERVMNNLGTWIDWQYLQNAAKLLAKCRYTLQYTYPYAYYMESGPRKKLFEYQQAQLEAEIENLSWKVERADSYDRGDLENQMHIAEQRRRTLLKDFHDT
UniProt Q14999: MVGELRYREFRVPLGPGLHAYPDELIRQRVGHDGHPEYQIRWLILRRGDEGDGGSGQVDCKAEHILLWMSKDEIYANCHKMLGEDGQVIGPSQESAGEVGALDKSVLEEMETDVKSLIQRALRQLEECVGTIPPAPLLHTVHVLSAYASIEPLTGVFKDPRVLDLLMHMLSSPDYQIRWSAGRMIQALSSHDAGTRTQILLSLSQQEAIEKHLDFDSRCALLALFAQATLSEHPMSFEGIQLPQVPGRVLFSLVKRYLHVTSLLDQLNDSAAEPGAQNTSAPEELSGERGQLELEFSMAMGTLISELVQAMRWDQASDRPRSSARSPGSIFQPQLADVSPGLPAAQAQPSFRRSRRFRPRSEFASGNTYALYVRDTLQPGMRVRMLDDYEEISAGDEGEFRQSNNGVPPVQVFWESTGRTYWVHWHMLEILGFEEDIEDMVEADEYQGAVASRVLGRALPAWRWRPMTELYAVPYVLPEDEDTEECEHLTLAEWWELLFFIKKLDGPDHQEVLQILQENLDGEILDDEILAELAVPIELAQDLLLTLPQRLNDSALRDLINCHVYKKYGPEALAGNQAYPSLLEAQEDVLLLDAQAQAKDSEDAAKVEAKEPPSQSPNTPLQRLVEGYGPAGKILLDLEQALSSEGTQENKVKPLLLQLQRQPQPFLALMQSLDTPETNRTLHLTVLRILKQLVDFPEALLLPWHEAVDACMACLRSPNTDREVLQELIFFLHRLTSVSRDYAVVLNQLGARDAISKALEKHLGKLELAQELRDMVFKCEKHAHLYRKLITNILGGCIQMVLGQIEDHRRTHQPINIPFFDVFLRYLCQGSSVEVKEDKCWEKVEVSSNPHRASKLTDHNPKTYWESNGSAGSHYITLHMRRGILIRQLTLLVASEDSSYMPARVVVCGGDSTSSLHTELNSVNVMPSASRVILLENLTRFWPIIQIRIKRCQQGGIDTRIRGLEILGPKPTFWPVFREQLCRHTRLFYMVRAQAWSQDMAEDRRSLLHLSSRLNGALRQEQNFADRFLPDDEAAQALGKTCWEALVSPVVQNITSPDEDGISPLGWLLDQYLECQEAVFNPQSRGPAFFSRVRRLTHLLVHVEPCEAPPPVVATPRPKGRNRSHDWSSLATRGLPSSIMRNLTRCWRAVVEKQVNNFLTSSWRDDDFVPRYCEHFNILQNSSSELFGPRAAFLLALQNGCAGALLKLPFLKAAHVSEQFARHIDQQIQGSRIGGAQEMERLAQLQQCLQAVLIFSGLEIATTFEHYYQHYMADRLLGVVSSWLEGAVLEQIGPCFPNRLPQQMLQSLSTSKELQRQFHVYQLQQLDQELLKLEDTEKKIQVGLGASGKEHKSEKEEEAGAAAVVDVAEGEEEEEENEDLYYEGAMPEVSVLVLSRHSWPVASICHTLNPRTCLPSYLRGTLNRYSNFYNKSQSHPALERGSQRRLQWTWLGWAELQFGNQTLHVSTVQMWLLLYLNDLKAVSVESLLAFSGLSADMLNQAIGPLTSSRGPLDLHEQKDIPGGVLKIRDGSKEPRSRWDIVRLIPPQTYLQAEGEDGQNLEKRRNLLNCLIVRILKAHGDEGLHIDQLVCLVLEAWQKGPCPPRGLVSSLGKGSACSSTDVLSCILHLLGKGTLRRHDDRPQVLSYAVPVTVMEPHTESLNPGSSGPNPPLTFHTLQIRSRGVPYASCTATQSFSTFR
UniProt Q13619: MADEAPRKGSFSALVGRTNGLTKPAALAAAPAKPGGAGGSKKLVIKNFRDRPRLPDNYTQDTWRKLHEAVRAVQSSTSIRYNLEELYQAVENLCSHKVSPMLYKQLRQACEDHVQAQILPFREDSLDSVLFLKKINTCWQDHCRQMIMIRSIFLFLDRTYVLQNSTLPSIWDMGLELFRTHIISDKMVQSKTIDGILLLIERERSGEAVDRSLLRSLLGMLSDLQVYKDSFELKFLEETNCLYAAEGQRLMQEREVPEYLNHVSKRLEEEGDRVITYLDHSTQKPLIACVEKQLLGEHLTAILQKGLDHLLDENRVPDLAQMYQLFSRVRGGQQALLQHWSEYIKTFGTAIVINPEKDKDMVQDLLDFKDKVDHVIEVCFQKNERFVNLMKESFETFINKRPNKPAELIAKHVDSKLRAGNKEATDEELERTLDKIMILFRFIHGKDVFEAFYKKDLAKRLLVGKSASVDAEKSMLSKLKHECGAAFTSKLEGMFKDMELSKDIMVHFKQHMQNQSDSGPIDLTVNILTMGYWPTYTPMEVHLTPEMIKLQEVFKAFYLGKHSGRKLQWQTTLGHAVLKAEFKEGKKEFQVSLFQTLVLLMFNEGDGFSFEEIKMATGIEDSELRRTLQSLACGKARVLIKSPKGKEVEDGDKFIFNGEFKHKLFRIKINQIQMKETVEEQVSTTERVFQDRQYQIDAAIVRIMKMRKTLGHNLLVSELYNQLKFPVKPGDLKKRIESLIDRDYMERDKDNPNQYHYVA

Assays:
[1] = biological target: T1, Lis1, exogenously expressed (Figures S4A-S4D) (human) (UniProt P43034); assay: pull-down; exogenously expressed proteins in HEK 293T cells; legends of Figures S4A-S4D not shown, beads and tags not told
T1 sequence: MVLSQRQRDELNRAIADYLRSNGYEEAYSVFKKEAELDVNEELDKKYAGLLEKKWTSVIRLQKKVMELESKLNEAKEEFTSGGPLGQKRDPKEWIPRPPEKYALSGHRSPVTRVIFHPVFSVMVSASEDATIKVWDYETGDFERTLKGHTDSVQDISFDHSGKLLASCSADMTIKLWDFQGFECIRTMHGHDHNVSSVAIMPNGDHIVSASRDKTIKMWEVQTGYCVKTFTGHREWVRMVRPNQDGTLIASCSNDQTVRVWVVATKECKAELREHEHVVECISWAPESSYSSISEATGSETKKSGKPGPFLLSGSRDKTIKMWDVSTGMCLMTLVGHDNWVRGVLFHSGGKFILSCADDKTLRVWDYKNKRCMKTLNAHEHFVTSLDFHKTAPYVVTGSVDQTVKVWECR

GST-CSN1 = GST-CSN1 (UniProt Q13098); assay: pull-down; bacterially purified recombinant GST-tagged protein incubated with purified MBP-ARIH2; eluates immunoblotted with MBP antibody; both purified
GST-CSN7A = biological target: T2, GST-CSN7A (UniProt Q9UBW8); assay: as above
T2 sequence: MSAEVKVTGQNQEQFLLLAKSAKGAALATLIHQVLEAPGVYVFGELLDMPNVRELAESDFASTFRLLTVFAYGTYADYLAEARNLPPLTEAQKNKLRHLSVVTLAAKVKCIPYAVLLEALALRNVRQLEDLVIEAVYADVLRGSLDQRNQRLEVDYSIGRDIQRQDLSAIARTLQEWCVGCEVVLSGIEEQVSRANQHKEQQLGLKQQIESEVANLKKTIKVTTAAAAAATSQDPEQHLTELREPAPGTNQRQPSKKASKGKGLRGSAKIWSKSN

SFB-Lis1 WT (human) = biological target: T3, SFB-Lis1 WT (human) (UniProt P43034); assay: pull-down; HEK 293T cells co-transfected with an SFB-tagged and a Myc-tagged protein; lysate (NETN buffer) incubated with S-protein beads, 2 h at 4 °C; immunoblot with Myc antibody
T3 sequence: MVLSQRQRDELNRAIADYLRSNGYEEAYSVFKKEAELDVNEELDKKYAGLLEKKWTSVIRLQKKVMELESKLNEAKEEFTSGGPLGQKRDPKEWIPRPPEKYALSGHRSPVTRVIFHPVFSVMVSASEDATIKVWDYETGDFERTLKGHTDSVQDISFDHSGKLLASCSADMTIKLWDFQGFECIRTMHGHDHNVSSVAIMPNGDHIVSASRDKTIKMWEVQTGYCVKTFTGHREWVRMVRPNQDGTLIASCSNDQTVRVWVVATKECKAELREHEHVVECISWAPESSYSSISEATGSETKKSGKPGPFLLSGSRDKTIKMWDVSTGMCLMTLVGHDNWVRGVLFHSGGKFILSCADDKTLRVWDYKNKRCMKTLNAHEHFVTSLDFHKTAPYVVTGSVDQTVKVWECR

[2] = biological target: ARIH1 (endogenous) (human (endogenous in HEK293T)) (UniProt Q9Y4X5); assay: co-IP; endogenous proteins; HEK293T lysates (NETN buffer) immunoprecipitated with IgG, ARIH1 or ARIH2 antibody on Protein G Sepharose, 2 h at 4 °C; western blot
[3] = biological target: ARIH2 (endogenous) (human (endogenous in HEK293T)) (UniProt O95376); assay: as above
SFB ARIH2 WT = SFB ARIH2 WT (UniProt O95376); assay: pull-down; HEK 293T cells co-transfected with an SFB-tagged and a Myc-tagged protein; lysate (NETN buffer) incubated with S-protein beads, 2 h at 4 °C; immunoblot with Myc antibody

Molecule: Cul7, exogenously expressed (Figures S4A-S4D) (from UniProt Q14999 1-1698)
- binding [1]: binds

Molecule: ARIH1, exogenously expressed (Figures S4A-S4D) (from UniProt Q9Y4X5 1-557) (enzyme)
- binding [1]: binds

Molecule: Cul4A, exogenously expressed (Figures S4A-S4D) (from UniProt Q13619 1-759)
- binding [1]: binds

Molecule: ARIH2, exogenously expressed (Figures S4A-S4E) (from UniProt O95376 1-493) (enzyme)
- binding [1]: binds

B2: Myc-Lis1 (protein, UniProt P43034 1-410)
chain: MVLSQRQRDELNRAIADYLRSNGYEEAYSVFKKEAELDVNEELDKKYAGLLEKKWTSVIRLQKKVMELESKLNEAKEEFTSGGPLGQKRDPKEWIPRPPEKYALSGHRSPVTRVIFHPVFSVMVSASEDATIKVWDYETGDFERTLKGHTDSVQDISFDHSGKLLASCSADMTIKLWDFQGFECIRTMHGHDHNVSSVAIMPNGDHIVSASRDKTIKMWEVQTGYCVKTFTGHREWVRMVRPNQDGTLIASCSNDQTVRVWVVATKECKAELREHEHVVECISWAPESSYSSISEATGSETKKSGKPGPFLLSGSRDKTIKMWDVSTGMCLMTLVGHDNWVRGVLFHSGGKFILSCADDKTLRVWDYKNKRCMKTLNAHEHFVTSLDFHKTAPYVVTGSVDQTVKVWECR
- binding (SFB ARIH2 WT): binds

Other lines, results leading:

- binding (GST-CSN1): binds
- binding (GST-CSN7A): binds
Molecule: MBP-ARIH2 (from UniProt O95376 1-493) (enzyme)

- binding (SFB-Lis1 WT (human)): binds
Molecule: Myc-ARIH2 (from UniProt O95376 1-493) (enzyme)

- binding [2]: binds
- binding [3]: binds
B1: Lis1 (endogenous) (protein, UniProt P43034 1-410)
chain: MVLSQRQRDELNRAIADYLRSNGYEEAYSVFKKEAELDVNEELDKKYAGLLEKKWTSVIRLQKKVMELESKLNEAKEEFTSGGPLGQKRDPKEWIPRPPEKYALSGHRSPVTRVIFHPVFSVMVSASEDATIKVWDYETGDFERTLKGHTDSVQDISFDHSGKLLASCSADMTIKLWDFQGFECIRTMHGHDHNVSSVAIMPNGDHIVSASRDKTIKMWEVQTGYCVKTFTGHREWVRMVRPNQDGTLIASCSNDQTVRVWVVATKECKAELREHEHVVECISWAPESSYSSISEATGSETKKSGKPGPFLLSGSRDKTIKMWDVSTGMCLMTLVGHDNWVRGVLFHSGGKFILSCADDKTLRVWDYKNKRCMKTLNAHEHFVTSLDFHKTAPYVVTGSVDQTVKVWECR
